Data taken from ChEMBL document CHEMBL3988442, “University of Dundee, Small-Polar-MMV Screening Library” (2021).

Sequences of proteins named here, by UniProt entry; tags and fusion partners are left off. Residues count along the entry.
UniProt Q8IDJ8, 1-583: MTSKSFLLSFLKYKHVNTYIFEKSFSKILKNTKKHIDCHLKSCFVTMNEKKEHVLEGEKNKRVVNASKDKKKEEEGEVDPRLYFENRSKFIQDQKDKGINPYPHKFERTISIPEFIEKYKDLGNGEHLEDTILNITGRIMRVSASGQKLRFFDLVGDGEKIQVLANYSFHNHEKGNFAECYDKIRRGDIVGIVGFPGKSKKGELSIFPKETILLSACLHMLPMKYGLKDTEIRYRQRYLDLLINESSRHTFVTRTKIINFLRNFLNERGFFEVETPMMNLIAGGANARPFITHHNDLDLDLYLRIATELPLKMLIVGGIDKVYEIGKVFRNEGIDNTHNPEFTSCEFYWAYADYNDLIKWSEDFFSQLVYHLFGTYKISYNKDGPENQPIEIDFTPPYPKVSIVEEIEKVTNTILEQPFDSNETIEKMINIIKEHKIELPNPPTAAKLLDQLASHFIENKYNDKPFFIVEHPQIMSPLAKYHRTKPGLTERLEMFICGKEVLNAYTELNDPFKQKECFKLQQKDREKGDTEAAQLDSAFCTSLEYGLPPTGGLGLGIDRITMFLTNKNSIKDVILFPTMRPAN

T. brucei: 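Whole-parasite assay of Trypanosoma brucei over 72 hours; the read-out is not stated. Compounds at 30 µM. The record gives no direction; compounds that gave an IC50 in retests scored well above the rest, so higher reads as stronger inhibition. Values scatter widely below zero; nearly all retest evidence comes from the higher of the two concentrations used. About 64,000 compounds were tested under these conditions; 1.5% (about 940) showed 50% or more at least once.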
PfKRS1: 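Lysine-tRNA ligase, Plasmodium falciparum 3D7 (UniProt Q8IDJ8). Enzyme assay of the cytosolic lysyl-tRNA synthetase in 384-well plates, read by luminescence. Concentration: 30 µM. Higher reads as stronger inhibition, judged from the few compounds that gave an IC50. Size under these conditions: about 69,000 compounds, about 49 of them at 50% or above in at least one test.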

Each number is a percent effect as filed.
How 0% and 100% were set is not recorded. Most values in the screen are low, and negative values occur.
The compounds are a random part of those screened.
A dash means the value is not listed here; it may have been measured.

Compound	T. brucei	PfKRS1
O=C(O)C(F)(F)F.[H][C@@]12CCN(C3CCC3)[C@]1([H])CC[C@H](C(=O)NCc1ccco1)O2	1.268%	-
CC(=O)N1CCn2c(-c3cccc(F)c3)cnc2C12CCNCC2.O=C(O)C(F)(F)F	-25.91%	-
O=C(O)CCCC(=O)NCC1(O)CCN(c2ccnc3cccnc23)C1 (stereo unspecified)	-19.81%	1.38%
Cc1ccsc1C(=O)N1CC(C(=O)N2CCCC2)C2(CCOCC2)C1 (stereo unspecified)	-50.55%	0.9237%
CC(=O)N1CCCC2(C1)CN(c1nncs1)CCO2.O=C(O)C(F)(F)F (stereo unspecified)	-90.31%	-
O=C(O)C(F)(F)F.O=c1ccc2c([nH]1)CCC(NCc1ccc(F)cc1)C2 (stereo unspecified)	-21.55%	-
CC(C)S(=O)(=O)N1CCN(C(=O)c2cnn(C)c2Cl)CC1	-30.42%	0.9409%
O=C(COc1cccnc1)NCc1nncn1C1CCCCC1	-13.38%	5.567%
C[C@@H](O)CNC(=O)c1nc(CC(=O)Nc2ccccc2)no1	-9.264%	2.995%
CN(C)S(=O)(=O)N1CC[C@]2(C[C@@H](OCc3ccccn3)CO2)C1.O=C(O)C(F)(F)F	8.085%	-
CN1CCC2(COCc3cnc(-c4ccccc4)nc32)C1.O=C(O)C(F)(F)F (stereo unspecified)	-34.89%	-
CC(=O)c1cn(CC(=O)N[C@H](C(=O)O)C(C)C)c2ccccc12	-9.601%	4.734%
Cc1ccc(NC2CCN(C(=O)c3ccc(F)cc3Cl)CC2)nn1	-9.238%	1.137%
CCOCCC(=O)Nc1cc(C(N)=O)ccc1N1CCCC(C)C1 (stereo unspecified)	-	7.284%
Cn1nc(Cn2ccnc2)c2c1CN(c1ncccn1)C2.O=C(O)C(F)(F)F	-26.59%	-
NS(=O)(=O)N1CCc2ccc(NC(=O)CCc3ccncc3)cc21	-30.6%	1.354%
O=C(Cc1ccc2c(c1)CCO2)N1CCCC1c1noc(C2CC2)n1 (stereo unspecified)	2.796%	-3.086%
O=C(Cc1ccc2c(c1)CCCC2)NCCNc1cnccn1	21.66%	1.111%
CN(Cc1cncnc1)[C@@H]1CN(C(=O)C2CC2)[C@@H]2CCCO[C@H]12	-	5.913%
CCC(C(=O)NCCc1nc(C)cc(C(F)(F)F)n1)n1cccn1 (stereo unspecified)	-17.34%	-0.6656%
O=C(O)C(F)(F)F.O=C(O)C(F)(F)F.[H][C@@]12CC(=O)N(Cc3cccc(C)n3)[C@@]1([H])CCN2Cc1ccsc1	-38.8%	-
O=C(O)C(F)(F)F.[H][C@@]12CCN(Cc3ccc(F)cc3)[C@]1([H])CC[C@H](COCC1CCOCC1)O2	-18.2%	-
Cc1cc(C(=O)N2CCC[C@]3(C[C@@H](OCC4CC4)CO3)C2)no1	-45.9%	2.15%
CCn1cnnc1CNC(=O)c1cc(Cl)ccc1I	-5.988%	1.662%
CCn1cc(CN2CCN(CC(O)c3ccc(C)cc3C)CC2)c(C)n1 (stereo unspecified)	-9.947%	1.671%
O=C(NCC(Cc1cccc(F)c1)N1CCCC1=O)c1cnccn1 (stereo unspecified)	-54.03%	-1.333%
Fc1cccc(CN2CCC[C@@H](Cn3nnc(-c4ccccn4)n3)C2)c1	-17.79%	5.51%
CN(C)c1ccc(C(=O)NCC2(O)CCOCC2)cc1	-3.451%	1.827%
CCN(Cc1noc(C)n1)C(=O)C(c1ccccc1C)N(C)C (stereo unspecified)	-13.4%	4.166%
CCCS(=O)(=O)N1CCOC2(COCCN(C(C)=O)C2)C1 (stereo unspecified)	-59.23%	18.91%
Cc1ccc2nc(NCCCN3CCCCCC3=O)n(C)c(=O)c2c1	-4.926%	3.318%
[H][C@@]12CN(C(=O)N(C)C)C[C@]1([H])C(=O)NC21CCN(C(=O)COC)CC1	-1.052%	-
COc1cc(C(=O)N2CCCC(CNS(C)(=O)=O)C2)cc(OC)c1C (stereo unspecified)	-4.933%	4.961%
COC(=O)C(c1cc(F)ccc1F)N(C)C(=O)c1ccnc(C)n1 (stereo unspecified)	15.15%	1.766%
CCCn1ncnc1C(C)NC(=O)C1CCN(CC(N)=O)CC1 (stereo unspecified)	-109.6%	4.55%
Cn1cncc1CN1CCCC1c1cncc(Oc2ccc(F)cc2)n1 (stereo unspecified)	-9.867%	2.036%
Fc1ccc(CN2CCn3cc(Cn4cccn4)nc3C2)cc1.O=C(O)C(F)(F)F	-33.44%	-
CC(C)NCc1cc2n(n1)CCN(C1CCCCC1)C2	-21.99%	4.566%
Cc1cnc(CN(C)Cc2cc3c(cc2OC(F)F)OCO3)o1	-4.079%	6.451%
O=C(c1ccncc1)N1C[C@@H]2CCN(c3cccnc3)C[C@@H]2C1	-	-1.022%
Cn1cc(C(=O)N2CCCC(c3ccncc3)C2)cn1 (stereo unspecified)	-1.954%	4.033%
Cc1nc(CN2C(=O)C[C@@H]3[C@@H]2CCN3S(=O)(=O)C2CC2)cs1	-	4.027%
CN(CCO)CC1COCCN1C(=O)CCC1CCCC1.O=CO (stereo unspecified)	-33.47%	-
COc1cc(N2C[C@H]3CN(C(=O)c4cnccn4)C[C@H]3C2)ncn1	-	5.53%
O=C(Nc1ccccn1)c1nc(N2CCCC2)ncc1Cl	-8.34%	1.535%
O=C(O)C1CCN(C(=O)Cn2ccc3c(Cl)cccc32)CC1	-0.8899%	2.841%
O=C1CC(NS(=O)(=O)c2ccc(Br)cc2)CN1 (stereo unspecified)	-19.04%	0.221%
CN1CCC(c2nnc(CN3CCC(O)CC3)n2C)CC1	-58.19%	5.367%
O=C(c1cc(-c2ccco2)nc2c(Cl)cccc12)N1CC[C@H]2CNC[C@H]21	-	4.683%
Cc1nccn1CCN(C)c1nc(-c2cccnc2)nc2c1CCNC2	-115.2%	7.271%
CC(NC(=O)NCC1(c2ccc(F)cc2)CCC1)c1nncn1C (stereo unspecified)	-7.077%	4.883%
COc1cccc(CC2(CO)CCCN(c3nccs3)C2)c1 (stereo unspecified)	-7.939%	5.673%
Cc1cnn(CC2CCCCN2CCCS(C)(=O)=O)c1 (stereo unspecified)	4.418%	3.172%
O=C(CC1CC1)N1CCn2cc(Cn3cccn3)nc2C1	-	1.791%
CC(=O)N1CCC(c2cncc(Oc3ccccc3)n2)CC1	-8.93%	0.1549%
Cc1cc(CN2C[C@@H]3COC[C@]3(CNS(C)(=O)=O)C2)no1	-	-2.624%
CC1=Nc2c(c(=O)[nH]n2C(C)C)C(c2cccs2)S1 (stereo unspecified)	36.47%	9.784%
O=C(O)C(F)(F)F.[H][C@@]12C[C@H](C(=O)N3CCCC3)CN(C(=O)c3ccncc3)[C@]1([H])CCO2	-6.388%	-
CC1(C)OC(=O)N(CC(=O)N2CCC(c3ccccc3Cl)C2)C1=O (stereo unspecified)	6.811%	1.509%
CCS(=O)(=O)NCCCNC1CSCCc2ccccc21 (stereo unspecified)	-55.6%	0.06114%
COCCN1C(=O)CC[C@]12CC[C@@H](NC(=O)c1cnccn1)CC2	-9.714%	2%
CC(C)c1ccc(C(C)N2CCCN(C(N)=O)CC2)cc1 (stereo unspecified)	-14.76%	6.439%
COCCN1CCn2cc(CNC(=O)C3CCC3)nc2C1	-11.86%	9.311%
CC(C)NC(=O)N1CCC2(COCc3cnc(-c4cccnc4)nc32)C1 (stereo unspecified)	-	1.688%
CCC(=O)NC1CCCN(Cc2ccc(-n3ccnc3)cc2)C1 (stereo unspecified)	-	5.506%
CCOC(=O)CN(CC(F)(F)F)C(=O)c1nc(C)n2ccccc12	-64.87%	1.085%
CNC(=O)C(C)(C)N(C)C(=O)c1cc(COc2ccccc2OC)[nH]n1	-22.61%	2.659%
N#Cc1cccc(CN2CC3(CCCCN3c3cncnc3)CC2=O)c1 (stereo unspecified)	-	1.536%
O=c1oc(-c2ccc(F)cc2)nn1CN1CCCCC1	-6.926%	1.906%
Cn1nc(CN2CCCC2)c2c1CN(CC1CC1)CC2	-	3.219%
COc1ccc(N2CCC(N(C)C(=O)Nc3ccncc3)CC2)cc1	4.773%	7.321%

For reference, 6 entries once more:

Compound,T. brucei,PfKRS1
O=C(c1cc(-c2ccco2)nc2c(Cl)cccc12)N1CC[C@H]2CNC[C@H]21,-,4.683%
Cn1cc(C(=O)N2CCCC(c3ccncc3)C2)cn1 (stereo unspecified),-1.954%,4.033%
COc1cc(N2C[C@H]3CN(C(=O)c4cnccn4)C[C@H]3C2)ncn1,-,5.53%
COCCN1CCn2cc(CNC(=O)C3CCC3)nc2C1,-11.86%,9.311%
CCCn1ncnc1C(C)NC(=O)C1CCN(CC(N)=O)CC1 (stereo unspecified),-109.6%,4.55%
COc1ccc(N2CCC(N(C)C(=O)Nc3ccncc3)CC2)cc1,4.773%,7.321%